Taken from: PubChem BioAssay AID686943 (Drosophila RNAi Screening Center, 2013)

- Test: 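Fly genes whose loss alters ERK activation after insulin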 (primary screen)
- Cells: Drosophila S2R+ haemocyte-like cells expressing YFP-tagged ERK (Rolled)
- Reagent: long dsRNA against Drosophila genes
- Conditions: insulin stimulation versus unstimulated cells; dose and duration not given
- Measurement: 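Per-plate z-scores of phospho-ERK immunostaining normalised to YFP-tagged ERK, measured with and without insulin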
- Reading the numbers: replicate 1, z-score of dpERK with insulin and replicate 2, z-score of dpERK with insulin: higher = more active ERK per ERK-YFP after insulin; replicate 1, z-score of dpERK under basal conditions: higher = more basal active ERK per ERK-YFP; replicate 1, z-score of ERK-YFP with insulin: higher = more YFP-tagged ERK signal
The deposit covers about 23,000 reagents; below is a random part of those with a known target gene and a result. 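Extra replicates exist only for a retested subset of genes; insulin dose and duration not given; both raised and lowered dpERK matter.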 Names joined by + are all predicted targets of the reagent. Not given: the amount of reagent, the time to read-out.

Gene | dsRNA | replicate 1, z-score of dpERK with insulin | replicate 2, z-score of dpERK with insulin | replicate 1, z-score of dpERK under basal conditions | replicate 1, z-score of ERK-YFP with insulin
sosie | DRSC14636 | 0.72 | -0.3 | 0.37 | 0.03
sosie | DRSC21382 | -0.31 | 0.43 | -0.84 | -2.09
Ptip (PAX transcription activation domain interacting protein) | DRSC10660 | -0.13 | 1.18 | -0.79 | 0.03
Ptip (PAX transcription activation domain interacting protein) | DRSC11048 | 0.89 | -2.31 | -2.5 | 0.52
Tl (Toll) | DRSC16885 | 0.62 | 0.12 | -0.47 | -3.35
CG18563 | DRSC02676 | -0.47 | 0.07 | -0.54 | -0.06
CG7182 | DRSC10780 | -0.72 | -0.52 | 0.26 | -0.79
CG4364 | DRSC02742 | -0.07 | -0.02 | -1.01 | -0.91
CG14315 | DRSC14794 | 0.13 | -0.09 | 2.27 | -0.31
Ppt1 (Palmitoyl-protein thioesterase 1) | DRSC17806 | -0.12 | 0.03 | -0.8 | -0.33
CG42534 | DRSC14722 | -3.25 | -0.33 | 1.85 | 2.69
CG42534 | DRSC14759 | -0.62 | -2.61 | -1.89 | 0.89
CG42534 | DRSC16072 | 0.71 | 0.32 | 0.79 | 0.35
CG15408 | DRSC00423 | 0.84 | 0.3 | -0.63 | -0.66
Txl (Thioredoxin-like) | DRSC11310 | 0.07 | -0.76 | 0.13 | 0.96
CG7483 | DRSC16249 | 0.4 | -0.01 | 1.49 | 0.22
CG7483 | DRSC22432 | -0.32 | -0.2 | -0.51 | -1.07
SmydA-8 (SET and MYND domain containing, arthropod-specific, member 8) | DRSC18797 | 1.22 | -1.31 | 1.44 | -0.32
SmydA-8 (SET and MYND domain containing, arthropod-specific, member 8) | DRSC22064 | 0.3 | 0.54 | -0.09 | 0.95
SmydA-8 (SET and MYND domain containing, arthropod-specific, member 8) | DRSC22263 | -1.24 | 0.39 | 0.25 | -0.18
CG8541 | DRSC10989 | 0.22 | 0.61 | 0.23 | 0.11
CG17919 | DRSC12571 | -0.43 | -0.05 | 0.37 | 1.59
Acp53C14b (Accessory gland protein 53C14b) | DRSC06569 | -0.79 | -0.05 | -0.7 | 0.49
CG34315 + Orc3 | DRSC07642 | 0.22 | 0.37 | 0.85 | -0.05
CG8112 | DRSC16377 | -0.01 | -0.29 | -0.55 | -0.49
CG30339 | DRSC05168 | -0.07 | -0.12 | 1.11 | 0.75
sd (scalloped) | DRSC20370 | 0.5 | -0.25 | -0.25 | -0.51
sd (scalloped) | DRSC21712 | 0.69 | 0.31 | -0.99 | 0.15
CG42566 | DRSC03949 | -0.75 | -0.23 | -0.03 | -0.12
ssp3 (short spindle 3) | DRSC02669 | 0.02 | -1.04 | 0.33 | -0.7
ssp3 (short spindle 3) | DRSC02670 | 0.37 | 0 | -0.85 | 0.16
Abcd1 (ATP binding cassette subfamily D member 1) | DRSC17157 | -0.19 | -0.11 | -0.31 | 0.36
CG4119 | DRSC17741 | 1.37 | 1.22 | 0.69 | 0.03
CG33288 | DRSC11484 | -0.11 | -0.48 | -0.84 | 0.3
CG2202 | DRSC19841 | 1.67 | 0.93 | -1.07 | -5.49
ND6 (retired record) | DRSC21271 | 0.52 | 0.24 | 0.51 | 0.14
CG16896 | DRSC04284 | 1.14 | 0.23 | -0.45 | -0.47
Jhbp5 (Juvenile hormone binding protein 5) | DRSC14240 | 0.33 | 0.58 | 0.02 | 0.16
Mob4 (MOB kinase activator 4) | DRSC04993 | -0.81 | -0.99 | -0.92 | -0.08
ix (intersex) | DRSC06325 | -0.24 | 0.42 | -1.56 | 0.15
Ppt2 (Palmitoyl-protein Thioesterase 2) | DRSC02786 | -0.71 | -0.2 | -0.1 | 0.1
HisT (Histamine transporter) | DRSC05051 | 0.32 | 0.91 | 0.27 | 0.05
HisT (Histamine transporter) | DRSC05052 | 0.52 | -0.47 | -1.84 | -1.07
HisT (Histamine transporter) | DRSC06405 | -0.14 | -1.61 | 0 | -1.29
CG1607 | DRSC15130 | -0.1 | -0.04 | -0.1 | 0.02
Tob (Transducer of ERBB2) | DRSC20294 | 0.68 | 0.03 | 0.53 | 0.16
frma (fra mauro) | DRSC18297 | 0.29 | 0.09 | -0.19 | -0.06
Lgr4 (Leucine-rich repeat-containing G protein-coupled receptor 4) | DRSC18969 | 0.42 | 0.37 | 0 | -0.61
Lgr4 (Leucine-rich repeat-containing G protein-coupled receptor 4) | DRSC18970 | -0.12 | 1.16 | -0.58 | 1.8
Lgr4 (Leucine-rich repeat-containing G protein-coupled receptor 4) | DRSC19884 | 0.04 | 0.17 | 1.32 | 0.39
myd (mayday) | DRSC14762 | 2.02 | -1.31 | 2.58 | 0.62
myd (mayday) | DRSC15512 | 0.79 | 0.87 | 0.78 | -0.14
su(Hw) (suppressor of Hairy wing) | DRSC17074 | 0.78 | -0.22 | -0.74 | -0.21
Rrp5 (Ribosomal RNA Processing 5) | DRSC15862 | 0.09 | 0.23 | 0.12 | -0.49
CG34159 | DRSC02885 | -1.19 | 1.18 | -0.98 | 1.92
sdt (stardust) | DRSC17555 | -2.07 | -0.81 | -0.63 | 0.56
sdt (stardust) | DRSC17556 | -0.26 | 0.2 | 0.59 | -0.23
sdt (stardust) | DRSC17860 | 1.68 | 0.92 | -0.19 | 0.67
sdt (stardust) | DRSC17861 | 0.9 | 0.36 | 0.66 | -0.48
sdt (stardust) | DRSC18022 | 1.07 | 0.69 | 0.12 | 0.36
sdt (stardust) | DRSC18025 | -1.89 | -1.82 | -1.62 | -1.08
sdt (stardust) | DRSC18026 | -3.85 | -3.25 | -1.41 | 0.77
sdt (stardust) | DRSC18027 | -0.06 | 0.27 | -0.25 | -0.4
sdt (stardust) | DRSC18108 | 0.02 | 0.59 | -0.09 | 0.51
GstZ1 (Glutathione S transferase Z1) | DRSC16478 | 0.67 | 0.89 | -0.5 | -0.34
CG13185 | DRSC06310 | 0.69 | -0.07 | -0.35 | 0.07
CG42471 | DRSC01210 | 0.56 | 0.18 | 0.32 | -0.74
CG30429 | DRSC04040 | -0.05 | 0.49 | -0.52 | 0.22
CG34165 | DRSC01970 | -3.22 | -4.47 | -2.17 | -2.25
Cdc45 (Cell division cycle 45) | DRSC17747 | -1.78 | -1.04 | -0.13 | 0.7
Cdc45 (Cell division cycle 45) | DRSC18164 | 0.03 | 1.78 | 1.73 | -1.38
CG12985 | DRSC19505 | 1.2 | 0.11 | -0.27 | 0.92
asRNA:CR43159 + yellow-k | DRSC10851 | 0.38 | 0.14 | -1.39 | 1.75

5 entries from above, limited to “replicate 1, z-score of dpERK under basal conditions”.
CG42534 [DRSC14759]	-1.89
CG42534 [DRSC16072]	0.79
CG15408 [DRSC00423]	-0.63
Txl (Thioredoxin-like) [DRSC11310]	0.13
CG7483 [DRSC16249]	1.49
